Measurements published in patent publication EP4825863A1, “DESIGN, PREPARATION AND APPLICATION OF TARGETED ACTIVATION ENRICHMENT TYPE NEAR-INFRARED PROBE AND PHOTOSENSITIZER” (dated 2026).
The structures given here were assigned with low confidence; some may be wrong.

Experiments:
[1] = tested on: HeLa cells overexpressing alkaline phosphatase (ALP); test: Confocal fluorescence imaging of HeLa cells with ALPIN-6, ALPIN-5, ALPIN-4; details: 1 µM
Description: Experimental conditions: 1 µM of the fluorescent probes ALPIN-6, ALPIN-5, and ALPIN-4 were incubated separately with HeLa cells overexpressing ALP on the cell surface and normal HEK293 cells with low ALP expression in a culture dish at 37°C for 30 minutes. Alternatively, HeLa cells were pre-treated with the alkaline phosphatase inhibitor Na3VO4 for 1 hour, followed by incubation with the probes for 30 minutes. After incubation, the probe-containing culture medium was discarded, and the cells were washed once with PBS (pH = 7.4). Subsequently, 1 mL of phenol red-free DMEM was added, and fluorescence imaging was performed using a confocal fluorescence microscope (Cy 5.5 channel).

[2] = tested on: mixed HeLa and HEK293 cells; test: Specific imaging of mixed HeLa and HEK293 cells; details: 1 µM, 37°C, 20 minutes
Description: Experimental conditions: Cultured HeLa and HEK293 cells (stably expressing green fluorescent protein) were seeded in a confocal dish, and 1 µM of the fluorescent probe ALPIN-6 was added to the mixed cells, followed by incubation at 37°C for 20 minutes. Fluorescence imaging was then performed using a fluorescence microscope.

[3] = tested on: HeLa cells; test: Real-time confocal imaging of HeLa cells with ALPIN-6; details: 0.1 µM, at 20 minutes
Description: Experimental conditions: Cultured HeLa cells were seeded in a confocal dish, and 0.1 µM of the fluorescent probe ALPIN-6 was added to the HeLa cells. Time-dependent fluorescence imaging was performed using a confocal fluorescence microscope (Cy 5.5 channel).

[4] = tested on: ALP; test: Gel imaging of covalent protein labeling (SDS-PAGE, near-infrared scan); details: probe 10 µM, ALP 8 µM, BSA 5 µM, 37°C, 2 hours
Description: According to experimental requirements, gel electrophoresis samples with a total volume of 25 µL were prepared as follows: Fluorescent probe ALPIN-6 or ALPIN-5 (10 µM) was incubated with different protein samples (ALP, 8 µM; BSA, 5 µM) at 37°C for 2 hours. Subsequently, 2 µL of gel electrophoresis loading buffer (5×) was added and mixed well for later use. An 8% polyacrylamide gel was prepared according to the Beyotime kit instructions, and 20 µL of each sample was loaded into individual wells. SDS-PAGE electrophoresis was carried out at 120 V for 2 to 3 hours. Following electrophoresis, the resulting gel was scanned using an Odyssey CLx Image Studio dual-color near-infrared imaging system (λex/em = 685 nm/720 nm). The resulting fluorescence images were analyzed for fluorescent protein bands. Subsequently, the protein gel was stained with Coomassie Brilliant Blue solution for 30 minutes on a shaker to visualize protein bands. Excess dye was then removed using Coomassie Brilliant Blue destaining solution (ethanol/acetic acid/water = 1:2:7), and the gel was photographed using a mobile phone.

[5] = tested on: HeLa tumor; test: Real-time in vivo fluorescence imaging of HeLa tumor-bearing mice (ALPIN-6); details: for Fluorescence intensity at different time points: 200 µL of 40 µM in PBS, tail vein
Description: Establishment of HeLa tumor xenograft model in nude mice: • (1) Preparation of HeLa cells: Cells were cultured and passaged as described above. The cultured cells were centrifuged following digestion, and washed twice with PBS (1 mL per wash). After centrifugation and removal of the supernatant, the cells were resuspended in FBS-free DMEM, counted, mixed with Matrigel, and placed in an ice bath for later use. • (2) Inoculation of HeLa cells into tumor-bearing nude mice: Female BALB/c nude mice aged 4 to 6 weeks were subcutaneously inoculated in the right hind limb with 200 µL of a mixture containing HeLa cells (4 × 10^6) in DMEM (without FBS) and Matrigel (1:4), using a 1 mL sterile medical syringe. The mice were maintained at 25°C for 2 to 3 weeks with free access to water and food. When the tumor volume reached approximately 0.1 cm^3, animal imaging experiments were performed. • (3) In vivo imaging of HeLa tumor-bearing nude mice using probes via tail vein injection: The experimental mice were first divided into three groups with three mice per group. Whole-body background fluorescence images were acquired from six nude mice using an IVIS Lumina XRMS Series III in vivo imaging system (λex = 660 nm, λem = 710 nm). The fluorescent probe ALPIN-6 or ALPIN-4 was then prepared as a 40 µM solution in PBS. Each tumor-bearing mouse received 200 µL of the prepared probe solution via tail vein injection using an insulin syringe. Subsequently, whole-body fluorescence data from the experimental mice were collected using the in vivo imaging system at multiple time points (1 h, 2 h, 3 h, 4 h, 6 h, 8 h, 24 h, and 36 h). For the inhibitor group, 50 µL of 10 mM Na3VO4 solution was first injected intratumorally, and 30 minutes later, ALPIN-6 was administered at the same concentration, followed by imaging at the same time points. • (4) Ex vivo imaging of tissues from HeLa tumor-bearing nude mice: In the tail vein injection group, at 36 hours post-injection, the nude mice were sacrificed by cervical dislocation. The tumors, heart, lungs, liver, spleen, and kidneys were harvested and subjected to fluorescence imaging.

[6] = tested on: ALP; test: Solution-phase enzymatic response of probe to ALP (absorption, fluorescence, HPLC); details: probe 10 µM
Description: The absorption spectra of probes were measured using a UV-Vis spectrophotometer over a wavelength range of 400 to 800 nm. The fluorescence spectra were measured using a fluorescence spectrometer with an excitation wavelength of 687 nm, excitation and emission slit widths of 3 nm, and an emission scanning range of 697 to 850 nm. The temporal changes in fluorescence intensity were measured using a microplate reader (SpectraMax i3). Measurements were performed in a 96-well plate with a default total volume of 100 µL per well, an excitation wavelength of 687 nm, an emission wavelength of 714 nm, and excitation and emission slit widths of 15 nm. The PMT was set to the default value of the microplate reader, with 10 flashes per read. Unless otherwise specified, all fluorescence and absorption measurements were carried out in PBS (1×, pH 7.4) containing 0.1% CHAPS (surfactant; 3-[(3-cholamidopropyl)dimethylammonio]-1-propanesulfonate). […]
Following incubation of probe ALPIN-6 (10 µM) with ALP (2 U/mL) in PBS in a water bath at 37°C for 30 minutes, the reaction mixture was centrifuged at 12,000 r/min for 10 minutes using a 10 kDa ultrafiltration membrane to remove proteins. A 100 µL aliquot of the filtrate was analyzed by HPLC at a wavelength of 600 nm.

CCC[N+]1=C(/C=C/C2=C3Oc4cc(OCc5ccc(OP(=O)(O)O)cc5)c(COC(=O)NCc5cn(CC[N+](C)(C)CCCS(=O)(=O)O)nn5)cc4C=C3CCC2)C(C)(C)c2ccccc21
fluorescence imaging of cells ([1]; 37°C, 30 minutes, compared with ALPIN-5 and ALPIN-4): more pronounced fluorescence imaging of ALP-overexpressing cells
fluorescence labeling of HeLa cells in the ALP inhibitor group ([1]; HeLa cells pre-treated with Na3VO4 for 1 hour): reduced
specific imaging in mixed cells [2]: enables specific imaging of the ALP-overexpressing HeLa cells
fluorescence intensity associated with the cells relative to background fluorescence [3]: more than 2000 fold
protein-labeling performance following enzymatic activation [4]: the strongest protein-labeling performance
Fluorescence intensity at different time points ([5]; 0 (h)): 1.65 ± 0.37 × 10^8
Fluorescence intensity at different time points ([5]; 1 (h)): 6.78 ± 1.13 × 10^8
Fluorescence intensity at different time points ([5]; 2 (h)): 5.78 ± 0.50 × 10^8
Fluorescence intensity at different time points ([5]; 3 (h)): 5.79 ± 0.55 × 10^8
Fluorescence intensity at different time points ([5]; 4 (h)): 5.64 ± 0.31 × 10^8
Fluorescence intensity at different time points ([5]; 6 (h)): 5.65 ± 0.39 × 10^8
Fluorescence intensity at different time points ([5]; 8 (h)): 4.98 ± 0.72 × 10^8
Fluorescence intensity at different time points ([5]; 24 (h)): 5.89 ± 0.42 × 10^8
Fluorescence intensity at different time points ([5]; 36 (h)): 5.25 ± 0.34 × 10^8
time up to which significant tumor-associated fluorescence remained detectable ([5]; intravenous administration): up to 36 hours
absorption and fluorescence change after reaction with ALP ([6]; ALP 2 U/mL, PBS pH 7.4 with 0.1% CHAPS, 37°C, 30 minutes): a red-shift in absorption and an enhancement in fluorescence intensity
specificity of fluorescence response ([6]; PBS pH 7.4): can specifically respond to ALP
